Assay results: PubChem BioAssay AID652054 (National Center for Advancing Translational Sciences (NCATS), 2013)
Out of some 360,000 compounds screened, about 9,100 (2.5%) were called active. The shares of active, inactive and inconclusive entries below differ from those in the screen. Rule as the data show it: active = max response below about -50%; inconclusive = no clear call, values can overlap the other calls; inactive = above that.

The chains behind the UniProt entries cited, without tags or fusion partners.
UniProt P35462, whole entry, looked up: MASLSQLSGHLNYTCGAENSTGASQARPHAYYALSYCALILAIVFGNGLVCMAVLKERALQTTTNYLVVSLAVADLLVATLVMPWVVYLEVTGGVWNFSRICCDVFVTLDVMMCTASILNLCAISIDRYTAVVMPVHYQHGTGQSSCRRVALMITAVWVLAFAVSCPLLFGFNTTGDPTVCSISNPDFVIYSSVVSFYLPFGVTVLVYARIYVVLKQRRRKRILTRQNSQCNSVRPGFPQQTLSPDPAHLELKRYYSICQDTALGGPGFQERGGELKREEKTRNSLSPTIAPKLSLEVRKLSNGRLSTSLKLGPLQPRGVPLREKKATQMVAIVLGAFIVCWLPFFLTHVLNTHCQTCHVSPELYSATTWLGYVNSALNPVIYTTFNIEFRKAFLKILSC

These compounds were tested against D(3) dopamine receptor (Homo sapiens) (UniProt P35462) (assay: qHTS of D3 Dopamine Receptor Antagonist: qHTS). Conditions: D3R cells, DiscoveRx beta-arrestin luminescence, antagonist mode; hits give low values.
Summary of the method: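 Cells plated overnight at 1500 cells/well, then exposed to library compounds with dopamine controls for 90 minutes at 37 degrees C. DiscoveRx reagent added for 30–60 minutes at room temperature; luminescence read, quantitative HTS format.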
% is scaled to controls: 0 for no effect and ±100 for the full control effect.

Structure (SMILES)	max response, negative = inhibition
COc1ccc(-n2c(SCc3ccc([N+](=O)[O-])cc3)nnc2-c2ccc(C)cc2)cc1	inconclusive: -33.9%
O=S(=O)(NCC1CCCO1)c1ccc2oc3ccc(S(=O)(=O)NCC4CCCO4)cc3c2c1 (stereo unspecified)	inconclusive: -32.1%
Cc1cccc(NCc2ccccc2O)n1	inconclusive: -40.5%
CCOC(=O)c1cnc2ccc(OCC)cc2c1N1CCN(c2ccccc2)CC1	active: -65.2%
C/C=C\C=C/C(=O)Nc1cccc(C2=NOC3(C2)C[C@H](C(N)=O)N(C(=O)c2ccc(OC)cc2)C3)c1 (stereo partly specified)	inconclusive: -39.3%
CCC(C)c1ccc(NC(=S)NC2CCN(Cc3ccccc3)CC2)cc1 (stereo unspecified)	inconclusive: -42.2%
Fc1cccc(CN2CCN3CCCC3C2C2CCCCC2)c1 (stereo unspecified)	inconclusive: -32.6%
S=c1[nH]nc(-c2ccco2)n1/N=C/C=C/c1ccccc1	active: -63.7%
Clc1ccc(-c2nc3c4ccccc4ccn3c2Cc2cccc(Cl)c2)cc1	inconclusive: -38.6%
Cc1nc(SCCCSc2n[nH]c(C)n2)n[nH]1	active: -69.5%
Cc1[nH]c2ccccc2c1/C=C/C(=O)c1ccccc1	inconclusive: -30.2%
COc1ccc(N(CC(C)C)S(=O)(=O)c2nnc(NC(=O)c3ccco3)s2)cc1	active: -91%
Cc1noc(C)c1COc1ccccc1C(=O)N(C)Cc1ccc(C(C)(C)C)cc1	inactive: 0.459%
Cc1occc1C(=O)Nc1ccccc1NC(=O)c1ccoc1C	inconclusive: -34.5%
CCCCCCCCCCOC(=O)Cn1c(COc2ccccc2C)[n+](C)c2ccccc21	inconclusive: -34.6%
CC(SCc1ccccc1)C(=O)Nc1ccccc1F (stereo unspecified)	inactive: -11.3%
COCCOc1cc(NCc2ccccc2)c2ncn(C(C)C)c2c1	active: -70.6%
Nc1ccccc1SC(CC(=O)c1ccccc1)c1cccc([N+](=O)[O-])c1 (stereo unspecified)	inconclusive: -30.5%
Cn1cc(C(N)=O)c2ccccc21	inconclusive: -38.6%
CCCCNC(=S)NNC(=O)c1csc(C)c1C	inconclusive: -31.2%
CCCNC(=S)N1CCN(Cc2ccc3c(c2)OCO3)CC1	inconclusive: -33.6%
COc1cc(OC)c2c(-c3ccccc3)cc(=O)oc2c1C(CCN1CCCC1)c1ccc2c(c1)OCO2 (stereo unspecified)	inconclusive: -37.9%

Structure (SMILES)	max response, negative = inhibition
CCOC(=O)/C(=C\c1ccc(N2CCC(c3ccccc3)=N2)cc1)C(C)=O	inactive: -4.57%
Cc1cc(Cl)c2oc(C(=O)N(C)CCCCN3CCOCC3)c(C)c2c1	inconclusive: -33%
CCOc1ccc(C(=O)C[n+]2ccc(C(=O)NCc3ccccc3)cc2)cc1	inconclusive: -31%
C/C(=N\NC(=O)C1COc2ccccc2O1)c1cc2ccccc2o1 (stereo unspecified)	inconclusive: -31%
COc1ccc(C2C(C(=O)c3cccs3)=C(O)C(=O)N2c2cccc(C)n2)cc1OC (stereo unspecified)	inconclusive: -30.3%
COc1cc(/C=C2\SC(=Nc3ccccc3)N(Cc3ccco3)C2=O)ccc1OC(C)C(=O)O (stereo unspecified)	inconclusive: -35.2%
CCC(CC)C(=O)N(C)c1c(C)nc2c(OCc3ccc(OC(F)F)cc3)cccn12	inactive: 1.16%
CCOC(=O)c1c(NC(=S)N2CCCCC2)sc2c1CCN(C(=O)OCC)C2	inactive: 9.65%
COc1ccccc1Nc1ncnc2c1c(C)c(C)n2CCO	inactive: 40.9%
CC(C)(CN1CCNCC1)NS(=O)(=O)c1ccc(Cl)cc1	active: -95%
O=C(CN(C(=O)Cn1nnc(-c2cccs2)n1)c1ccc2c(c1)OCCO2)NC1CCCCC1	inconclusive: -47.9%
N#Cc1sc(NCc2cccc(Cl)c2)nc1Cl	inconclusive: -36.6%
COC(=O)C1Cc2ccccc2CN1S(=O)(=O)c1ccc(F)cc1 (stereo unspecified)	inconclusive: -33.2%
CCOC(=O)c1[nH]c(C)c(C(=O)NCCN2CCOCC2)c1C	inconclusive: -40.5%
CCOC(=O)c1ccccc1NC(=O)COC(=O)CSCC(=O)Nc1cc(C)on1	inactive: 0%
Cc1cc(C)c2nc(C)cc(N/N=C/c3ccc(O)cc3)c2c1	inconclusive: -48.8%
Oc1ccc(/C(Cc2ccc3ccccc3n2)=N\Nc2ccccc2)c(O)c1	inconclusive: -40.7%
CC(=O)c1cc(C(=O)N2CCCC(C(=O)c3ccc(Cl)cc3)C2)cs1 (stereo unspecified)	inconclusive: -45.6%
CC1CCN(CCc2nc3cc(NC(=O)Nc4ccccc4)ccc3n2C)CC1	active: -60.5%
Cc1ccc(-n2nnc3c(=O)n(Cc4cc(C)ccc4C)cnc32)cc1	active: -67.9%
COc1ccc(S(=O)(=O)Nc2ccc3c(c2)C(=O)N([C@H](C)CO)C[C@H](C)[C@@H](CN(C)C(=O)Nc2c(C)noc2C)OCCCC[C@H](C)O3)cc1	inconclusive: -33%
O=C(NCCc1ccc(C(F)(F)F)cc1)c1ccc(Cl)nc1	inactive: -2%

Structure (SMILES)	max response, negative = inhibition
O=C(Cn1c(=O)c2cccn2c2cccnc21)NCCCN1CCN(c2ccc(F)cc2)CC1	active: -118%
O=C(c1nc2nc(-c3cccs3)cc(C(F)(F)F)n2n1)N1CCN(Cc2ccccc2)CC1	inconclusive: -48.1%
Nc1cccc2c1C(=O)N(C(=O)/C=C/c1cccc(F)c1)C2=O	inconclusive: -33.7%
CCCCCc1cc(=O)oc2c(C(CCN3CCCCC3)c3ccc(OC)cc3)c(OC)cc(OC)c12 (stereo unspecified)	inconclusive: -48.7%
O=C(CCC1CCCC1)N1CCC(N2CCN(c3ccccc3)CC2)CC1	inconclusive: -49.2%
Cc1cc(C)cc(C(O)c2ncc(-c3ccc4ccccc4c3)[nH]2)c1 (stereo unspecified)	active: -55.9%
CC(NC(=O)CCSCCC(=O)NC(C)c1ccccc1)c1ccccc1 (stereo unspecified)	inactive: 0.916%
CC1CCC2C(=O)N(c3ccc(C(=O)Oc4cccc5cccnc45)cc3)C(=O)C2C1 (stereo unspecified)	active: -68.5%
O=C(NC1(C(F)(F)F)NC(=O)N(CC2CCCCC2)C1=O)c1ccco1 (stereo unspecified)	active: -51.1%
CC(C)C(C(=O)NCc1ccccc1)N1CCN(C(=O)C2CCCO2)CC1 (stereo unspecified)	inconclusive: -30%
CCOC(=O)c1c(NC(C)=O)sc2c1CCC(C=NCCCN(CC)CC)=C2Sc1ccccc1	active: -66%
O=C(COc1ccc2c3c(c(=O)oc2c1)CCCC3)N1C[C@H]2C[C@@H](C1)c1cccc(=O)n1C2	inconclusive: -39.6%
O=C(Oc1ccccc1)N1CCN(c2ccccc2F)CC1	inconclusive: -43.3%
O=C(CCN1CCN(c2ccccc2F)CC1)c1ccc(Br)cc1	inconclusive: -47%
C=CCNC(=O)c1cc2cc(Cl)ccc2nc1N	inconclusive: -37.4%
COc1cc(/C=C2/SC(=S)N(Cc3ccccc3)C2=O)ccc1OS(C)(=O)=O	inactive: -16.6%
CCC1=NN(C(=O)C(=O)NCCc2ccccc2)C(O)(C(F)(F)F)C1 (stereo unspecified)	active: -64.6%
O=[N+]([O-])c1ccccc1NC1CCN(Cc2ccccc2)CC1	inconclusive: -36.1%
CC(C)(C)OC(=O)Nc1ccccc1-n1nnnc1C(C(=O)c1ccccc1)N1CCN(c2ccccn2)CC1 (stereo unspecified)	inactive: -0.879%
Cc1ccc(CN2C(=O)c3ccccc3Sc3ccc(C(=O)NCCN4CCOCC4)cc32)cc1	inconclusive: -33.8%
NS(=O)(=O)c1cccc(NC(=O)CSc2nc3nc(-c4cccs4)cc(C(F)(F)F)c3c(=O)[nH]2)c1	inactive: -11.5%
O=C(CN1CCSC1=NCc1ccccc1)c1ccc(Cl)cc1	active: -66.9%

Given bar-delimited: 2 of the compounds above.
Structure (SMILES) | max response, negative = inhibition
O=C(NCCc1ccc(C(F)(F)F)cc1)c1ccc(Cl)nc1 | inactive: -2%
O=C(Cn1c(=O)c2cccn2c2cccnc21)NCCCN1CCN(c2ccc(F)cc2)CC1 | active: -118%

More entries follow:

Structure (SMILES)	max response, negative = inhibition
COc1ccc(NC(=O)C23CCC(C)(C(=O)O2)C3(C)C)cc1 (stereo unspecified)	inactive: -28.6%
Oc1ccc(Cl)cc1-c1cc(-c2ccco2)[nH]n1	inactive: 7.98%
COCCNC(=O)c1cccc(OC2CCN(Cc3ccc(C(C)C)cc3)CC2)c1	inconclusive: -31%
CCOC(=O)c1cc(=O)n2nc(-c3ccccc3F)nc2s1	inconclusive: -44.5%
Cc1cccc(N2CCN(CCCNC(=O)c3ccc(NC(=O)C4=CSCCO4)cc3)CC2C)c1 (stereo unspecified)	inconclusive: -47.8%
Cc1cccc(NC(=O)Cn2c(O)c(N=NC(=O)c3ccccc3O)c3ccccc32)c1	active: -71.2%
COc1ccc(CCNC(=O)CN2C(=O)COc3ccc(S(=O)(=O)N4CCCC4)cc32)c(OC)c1	inactive: -12.4%
COc1ccc([N+](=O)[O-])cc1NC(=O)CSCc1cc(C)cc(C)c1	inconclusive: -43.1%
Nc1c(C(=O)c2ccc(Cl)cc2)oc2ccccc12	inconclusive: -34.7%
Nc1ccc2nc(-c3ccccc3)sc2c1	inconclusive: -31.6%
CCCn1nc(C(=O)Nc2ccc(S(=O)(=O)Nc3ncccn3)cc2)c2ccccc2c1=O	inactive: 5.83%
Cc1ccc(OCC(=O)c2cc(C)n(C)c2C)c([N+](=O)[O-])n1	inactive: 13.6%
CCOC(=O)C(NC(=O)CC)(Nc1ccc(S(N)(=O)=O)cc1)C(F)(F)F (stereo unspecified)	inconclusive: -30.3%
CCOc1ccc(NC(=O)C2CC(=O)N(c3cc(C)cc(C)c3)C2)cc1 (stereo unspecified)	inconclusive: -44.9%
O=C(/C=C/c1ccc(Cl)cc1Cl)NC(=S)Nc1ccc(CN2CCOCC2)cc1	active: -82.8%
Cc1ccc2nc(N(CCCN(C)C)C(=O)CS(=O)(=O)c3ccccc3)sc2c1	inconclusive: -31.8%
COc1cc(C2NC(=O)NC(C)=C2C(=O)OC2CCCCC2)cc(Cl)c1O (stereo unspecified)	inactive: -3.3%
COc1cccc(Oc2cn[nH]c2-c2ccc(OC)cc2O)c1	inactive: -26.9%
C=CCn1c(Cc2c[nH]c3ccccc23)nnc1SCC(=O)NCc1ccccc1	inconclusive: -34.4%
c1ccc(SCc2cc(-c3ccccc3)no2)cc1	inconclusive: -38.9%
